Data taken from paper PMC12071194.
No constants are given. Whether binding was seen depends on the method and setting. Binding seen in cells or lysates may run through a third protein.

Protein sequences, listed by entry. Tags and fused reporters are not part of them.
UniProt O60238: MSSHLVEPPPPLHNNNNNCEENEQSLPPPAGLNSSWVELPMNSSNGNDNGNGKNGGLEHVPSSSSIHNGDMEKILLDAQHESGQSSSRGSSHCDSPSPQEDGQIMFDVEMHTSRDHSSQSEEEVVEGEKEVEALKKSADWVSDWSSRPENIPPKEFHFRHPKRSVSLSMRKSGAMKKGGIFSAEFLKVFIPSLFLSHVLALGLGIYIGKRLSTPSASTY
UniProt Q6ZNE5: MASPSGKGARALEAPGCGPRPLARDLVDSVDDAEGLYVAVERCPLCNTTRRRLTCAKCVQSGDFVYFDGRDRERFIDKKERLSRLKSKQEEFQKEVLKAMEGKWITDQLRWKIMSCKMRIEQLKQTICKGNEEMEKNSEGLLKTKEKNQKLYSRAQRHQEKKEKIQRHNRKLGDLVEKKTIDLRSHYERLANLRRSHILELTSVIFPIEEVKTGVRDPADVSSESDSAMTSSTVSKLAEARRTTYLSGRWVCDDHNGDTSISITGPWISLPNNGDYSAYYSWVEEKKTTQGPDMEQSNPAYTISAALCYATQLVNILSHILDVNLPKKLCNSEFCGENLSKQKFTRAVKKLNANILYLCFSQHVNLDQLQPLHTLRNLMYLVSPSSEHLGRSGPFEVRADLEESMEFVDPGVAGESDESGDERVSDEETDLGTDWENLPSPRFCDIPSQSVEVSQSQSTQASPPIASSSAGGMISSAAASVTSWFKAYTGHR

Target: mCherry-NIX (WT) (UniProt O60238)
Experiment: co-IP; RFP-trap magnetic agarose on lysates (0.5% triton X-100 buffer) of B/N DKO HeLa cells expressing mCherry-BNIP3 or mCherry-NIX; cells cultured with 1 mM DFP for 12 h, then 12 h more with 100 nM bafilomycin A1 and DFP; immunoblot

binding: no binding
Substance: Atg14 (from UniProt Q6ZNE5 1-492)
